This is one part of the list.
Tests used:
Experiment in all cases: log2 fold change, soluble protein after heating vs DMSO (PISA); higher = thermal stabilisation; K562 lysate, 10 uM; active = over 0.2 and 3.5 SD of the protein, either way, in both replicates (recomputed)
[1] = compound: C#Cc1cccc(Nc2ncnc3cc(OCCOC)c(OCCOC)cc23)c1 [erlotinib]
Outline: (§1)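 K562 pellets were dounce-homogenised in PBS pH 7.4 containing 1 mM MgCl2, and the crude extract, at 1 mg/mL protein, was exposed to 10 μM compound for 30 min. Aliquots were heated for 3 min across 48°C-58°C, pooled, brought to 0.5% NP-40 at 4°C and spun at 21,000xg for 90 min, with the supernatant taken as soluble protein. TMTpro 16plex LC-MS/MS with equalised channel sums quantified that protein. Values are log-two fold changes in thermal stability relative to solvent controls, taken from duplicates.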

Protein sequences, listed by entry. Tags and fused reporters are not part of them. Lines headed by an entry give the natural chain unless they say otherwise; changes in a name come on top.
UniProt P08962, whole entry, looked up: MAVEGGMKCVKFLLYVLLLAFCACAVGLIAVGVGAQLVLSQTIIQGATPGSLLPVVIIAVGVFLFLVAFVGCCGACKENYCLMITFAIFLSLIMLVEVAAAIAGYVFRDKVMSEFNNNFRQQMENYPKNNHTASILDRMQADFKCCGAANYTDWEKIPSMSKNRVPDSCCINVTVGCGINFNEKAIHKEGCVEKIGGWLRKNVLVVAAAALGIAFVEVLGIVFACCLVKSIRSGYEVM
UniProt A6NHX0: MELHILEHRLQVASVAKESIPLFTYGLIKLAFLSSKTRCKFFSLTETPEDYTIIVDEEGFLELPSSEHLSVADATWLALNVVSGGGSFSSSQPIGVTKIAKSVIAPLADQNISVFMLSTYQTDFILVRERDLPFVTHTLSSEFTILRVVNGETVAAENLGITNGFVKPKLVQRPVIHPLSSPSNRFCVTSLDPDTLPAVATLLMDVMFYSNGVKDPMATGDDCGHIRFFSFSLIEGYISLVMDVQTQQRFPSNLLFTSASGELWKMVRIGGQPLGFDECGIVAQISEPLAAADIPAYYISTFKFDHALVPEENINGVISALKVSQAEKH
UniProt O95067, whole entry, looked up: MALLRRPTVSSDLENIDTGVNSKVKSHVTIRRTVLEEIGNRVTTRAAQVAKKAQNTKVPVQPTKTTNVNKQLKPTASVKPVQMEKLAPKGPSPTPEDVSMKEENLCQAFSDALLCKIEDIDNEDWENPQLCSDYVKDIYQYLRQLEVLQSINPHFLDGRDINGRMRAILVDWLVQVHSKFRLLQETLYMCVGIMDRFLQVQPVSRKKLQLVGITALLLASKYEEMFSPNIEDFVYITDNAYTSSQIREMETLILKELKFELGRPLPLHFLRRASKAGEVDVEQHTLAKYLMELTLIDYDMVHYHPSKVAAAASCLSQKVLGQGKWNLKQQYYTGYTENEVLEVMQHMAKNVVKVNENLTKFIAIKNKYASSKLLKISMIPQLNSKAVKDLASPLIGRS
UniProt Q96MW1: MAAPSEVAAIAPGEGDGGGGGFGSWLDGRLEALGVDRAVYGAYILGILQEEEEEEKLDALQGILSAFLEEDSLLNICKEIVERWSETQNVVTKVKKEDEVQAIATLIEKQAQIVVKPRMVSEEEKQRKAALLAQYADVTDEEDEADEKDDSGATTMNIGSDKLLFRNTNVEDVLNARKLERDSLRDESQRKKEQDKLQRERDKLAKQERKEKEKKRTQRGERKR
UniProt O14936: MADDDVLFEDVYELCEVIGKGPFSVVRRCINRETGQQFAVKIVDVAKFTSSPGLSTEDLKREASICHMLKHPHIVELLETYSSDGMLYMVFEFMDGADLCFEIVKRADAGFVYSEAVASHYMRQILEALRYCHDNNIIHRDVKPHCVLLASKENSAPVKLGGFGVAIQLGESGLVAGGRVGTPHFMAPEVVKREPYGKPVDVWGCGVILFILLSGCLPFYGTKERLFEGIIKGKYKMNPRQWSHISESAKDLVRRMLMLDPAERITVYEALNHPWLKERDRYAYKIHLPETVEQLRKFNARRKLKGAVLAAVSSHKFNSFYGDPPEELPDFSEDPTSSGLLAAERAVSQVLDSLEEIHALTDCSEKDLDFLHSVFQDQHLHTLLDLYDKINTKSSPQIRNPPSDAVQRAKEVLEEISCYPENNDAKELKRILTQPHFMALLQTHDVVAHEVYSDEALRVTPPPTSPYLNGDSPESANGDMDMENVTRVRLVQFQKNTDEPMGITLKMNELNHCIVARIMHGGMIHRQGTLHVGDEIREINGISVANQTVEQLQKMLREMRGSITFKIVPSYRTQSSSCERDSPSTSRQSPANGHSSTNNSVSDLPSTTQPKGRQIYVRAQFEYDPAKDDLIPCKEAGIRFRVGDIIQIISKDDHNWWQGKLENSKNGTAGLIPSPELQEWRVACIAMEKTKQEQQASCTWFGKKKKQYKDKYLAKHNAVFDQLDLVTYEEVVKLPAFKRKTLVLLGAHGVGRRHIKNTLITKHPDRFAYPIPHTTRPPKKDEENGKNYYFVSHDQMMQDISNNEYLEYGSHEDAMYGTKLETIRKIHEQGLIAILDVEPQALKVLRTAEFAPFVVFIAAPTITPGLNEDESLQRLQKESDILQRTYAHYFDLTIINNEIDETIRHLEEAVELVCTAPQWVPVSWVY
UniProt O95273: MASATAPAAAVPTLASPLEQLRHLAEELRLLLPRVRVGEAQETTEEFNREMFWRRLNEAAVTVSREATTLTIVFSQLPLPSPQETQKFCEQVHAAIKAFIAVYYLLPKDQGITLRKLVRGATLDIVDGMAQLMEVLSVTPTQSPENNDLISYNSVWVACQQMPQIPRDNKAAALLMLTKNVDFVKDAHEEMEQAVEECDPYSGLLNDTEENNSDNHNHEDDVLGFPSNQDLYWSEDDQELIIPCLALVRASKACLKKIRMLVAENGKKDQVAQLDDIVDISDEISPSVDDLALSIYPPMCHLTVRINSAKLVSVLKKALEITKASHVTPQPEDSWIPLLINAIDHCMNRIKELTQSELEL
UniProt Q9Y5K6, whole entry, looked up: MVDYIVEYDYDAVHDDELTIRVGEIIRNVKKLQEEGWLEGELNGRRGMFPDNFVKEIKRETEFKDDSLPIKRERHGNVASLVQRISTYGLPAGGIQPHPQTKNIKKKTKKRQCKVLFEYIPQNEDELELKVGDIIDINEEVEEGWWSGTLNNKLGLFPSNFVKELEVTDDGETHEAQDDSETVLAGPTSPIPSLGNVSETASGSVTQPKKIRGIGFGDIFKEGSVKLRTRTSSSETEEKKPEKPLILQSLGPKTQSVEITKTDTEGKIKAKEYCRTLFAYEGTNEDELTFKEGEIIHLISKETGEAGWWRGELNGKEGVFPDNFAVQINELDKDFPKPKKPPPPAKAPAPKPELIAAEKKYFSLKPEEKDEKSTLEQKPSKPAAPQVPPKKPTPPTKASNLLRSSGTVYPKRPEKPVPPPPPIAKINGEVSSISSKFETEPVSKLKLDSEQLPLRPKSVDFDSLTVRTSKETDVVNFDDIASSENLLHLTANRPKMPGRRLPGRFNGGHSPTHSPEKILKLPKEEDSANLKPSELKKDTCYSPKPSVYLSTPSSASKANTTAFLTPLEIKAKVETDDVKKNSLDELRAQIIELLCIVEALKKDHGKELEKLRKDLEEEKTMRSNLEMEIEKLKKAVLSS
UniProt P16152: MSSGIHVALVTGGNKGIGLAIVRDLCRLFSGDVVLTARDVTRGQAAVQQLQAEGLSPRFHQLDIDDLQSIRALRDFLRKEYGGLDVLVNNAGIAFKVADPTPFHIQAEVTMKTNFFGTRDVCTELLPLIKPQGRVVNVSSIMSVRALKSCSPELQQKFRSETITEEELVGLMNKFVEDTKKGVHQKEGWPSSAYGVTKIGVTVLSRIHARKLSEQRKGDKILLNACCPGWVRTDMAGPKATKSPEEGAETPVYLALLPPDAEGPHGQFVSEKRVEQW
UniProt Q8N7R7: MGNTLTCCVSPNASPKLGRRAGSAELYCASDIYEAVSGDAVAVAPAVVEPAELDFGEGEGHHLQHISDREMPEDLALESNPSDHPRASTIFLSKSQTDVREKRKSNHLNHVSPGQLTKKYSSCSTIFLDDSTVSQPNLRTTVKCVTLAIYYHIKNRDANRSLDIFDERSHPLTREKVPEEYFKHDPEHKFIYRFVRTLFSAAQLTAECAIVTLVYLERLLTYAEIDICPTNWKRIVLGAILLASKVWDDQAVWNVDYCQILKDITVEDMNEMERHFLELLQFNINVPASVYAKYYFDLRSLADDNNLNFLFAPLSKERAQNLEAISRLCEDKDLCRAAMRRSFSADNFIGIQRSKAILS
UniProt Q16204: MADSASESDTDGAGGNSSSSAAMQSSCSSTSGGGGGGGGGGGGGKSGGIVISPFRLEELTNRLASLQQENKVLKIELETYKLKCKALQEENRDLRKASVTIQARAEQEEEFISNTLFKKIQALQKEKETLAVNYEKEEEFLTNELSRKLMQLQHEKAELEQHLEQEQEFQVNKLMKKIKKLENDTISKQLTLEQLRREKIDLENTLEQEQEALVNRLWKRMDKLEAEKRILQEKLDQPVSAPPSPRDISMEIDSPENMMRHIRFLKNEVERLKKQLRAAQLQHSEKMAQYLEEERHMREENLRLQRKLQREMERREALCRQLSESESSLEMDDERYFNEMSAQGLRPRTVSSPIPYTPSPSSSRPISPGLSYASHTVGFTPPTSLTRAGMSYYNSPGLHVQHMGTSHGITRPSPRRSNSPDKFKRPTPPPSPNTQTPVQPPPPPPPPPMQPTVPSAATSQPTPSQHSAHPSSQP
UniProt Q8IVM0: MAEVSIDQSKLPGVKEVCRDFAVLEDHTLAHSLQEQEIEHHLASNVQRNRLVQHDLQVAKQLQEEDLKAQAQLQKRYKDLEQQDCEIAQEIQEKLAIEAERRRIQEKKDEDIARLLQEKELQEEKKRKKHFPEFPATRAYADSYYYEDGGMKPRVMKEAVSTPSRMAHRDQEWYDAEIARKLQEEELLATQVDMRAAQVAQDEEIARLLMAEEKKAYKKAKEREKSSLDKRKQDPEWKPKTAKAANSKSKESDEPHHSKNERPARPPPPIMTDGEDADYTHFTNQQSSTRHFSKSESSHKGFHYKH
UniProt Q9P219: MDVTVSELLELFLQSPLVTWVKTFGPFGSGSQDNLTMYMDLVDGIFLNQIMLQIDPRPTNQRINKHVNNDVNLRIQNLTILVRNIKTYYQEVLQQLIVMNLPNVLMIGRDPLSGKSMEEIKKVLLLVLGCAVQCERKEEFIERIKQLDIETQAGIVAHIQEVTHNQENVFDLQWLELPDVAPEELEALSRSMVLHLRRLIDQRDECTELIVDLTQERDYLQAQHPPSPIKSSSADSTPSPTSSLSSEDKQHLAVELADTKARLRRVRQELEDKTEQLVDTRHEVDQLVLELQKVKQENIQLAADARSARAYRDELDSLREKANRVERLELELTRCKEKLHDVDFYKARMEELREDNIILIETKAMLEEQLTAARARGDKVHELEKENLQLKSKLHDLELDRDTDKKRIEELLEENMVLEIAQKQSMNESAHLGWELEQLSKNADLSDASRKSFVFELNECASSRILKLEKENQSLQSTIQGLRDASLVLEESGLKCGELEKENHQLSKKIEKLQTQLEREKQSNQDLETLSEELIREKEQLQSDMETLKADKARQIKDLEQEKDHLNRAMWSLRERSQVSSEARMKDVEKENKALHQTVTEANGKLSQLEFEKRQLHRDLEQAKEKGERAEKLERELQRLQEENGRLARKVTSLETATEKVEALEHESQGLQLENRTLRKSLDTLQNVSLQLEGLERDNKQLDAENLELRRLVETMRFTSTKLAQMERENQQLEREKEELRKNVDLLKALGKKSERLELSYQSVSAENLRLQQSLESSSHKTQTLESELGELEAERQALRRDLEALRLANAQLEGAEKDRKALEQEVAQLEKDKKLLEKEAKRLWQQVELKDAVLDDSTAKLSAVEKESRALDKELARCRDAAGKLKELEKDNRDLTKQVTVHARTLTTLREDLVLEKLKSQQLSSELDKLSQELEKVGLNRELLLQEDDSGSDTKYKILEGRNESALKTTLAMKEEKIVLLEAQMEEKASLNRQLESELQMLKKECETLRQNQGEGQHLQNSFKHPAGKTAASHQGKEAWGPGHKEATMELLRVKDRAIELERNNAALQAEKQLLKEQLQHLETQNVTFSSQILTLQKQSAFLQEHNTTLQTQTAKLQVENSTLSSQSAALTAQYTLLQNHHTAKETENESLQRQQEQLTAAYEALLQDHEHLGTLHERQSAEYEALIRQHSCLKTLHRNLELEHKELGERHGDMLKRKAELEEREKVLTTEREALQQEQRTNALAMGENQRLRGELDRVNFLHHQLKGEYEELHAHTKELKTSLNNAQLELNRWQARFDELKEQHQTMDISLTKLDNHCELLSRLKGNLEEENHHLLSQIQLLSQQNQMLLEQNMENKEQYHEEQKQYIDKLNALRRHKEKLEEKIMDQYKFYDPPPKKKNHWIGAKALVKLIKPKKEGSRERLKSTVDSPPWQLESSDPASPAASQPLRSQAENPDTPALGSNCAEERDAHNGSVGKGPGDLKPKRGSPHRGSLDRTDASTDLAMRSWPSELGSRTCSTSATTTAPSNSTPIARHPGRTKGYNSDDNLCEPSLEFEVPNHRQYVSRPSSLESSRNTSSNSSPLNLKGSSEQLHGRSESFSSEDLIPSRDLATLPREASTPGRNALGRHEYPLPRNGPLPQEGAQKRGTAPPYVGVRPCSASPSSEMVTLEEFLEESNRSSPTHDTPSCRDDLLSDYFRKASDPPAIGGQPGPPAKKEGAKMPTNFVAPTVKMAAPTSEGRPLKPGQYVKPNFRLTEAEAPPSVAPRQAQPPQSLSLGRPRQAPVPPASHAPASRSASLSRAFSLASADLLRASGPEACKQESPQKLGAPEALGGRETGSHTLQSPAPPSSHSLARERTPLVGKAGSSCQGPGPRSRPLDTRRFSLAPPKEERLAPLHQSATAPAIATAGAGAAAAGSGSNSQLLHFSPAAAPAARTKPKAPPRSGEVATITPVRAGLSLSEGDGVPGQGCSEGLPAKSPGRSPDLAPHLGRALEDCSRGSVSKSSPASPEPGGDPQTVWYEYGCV

[2] = compound: C/C(=N\NC(=O)C1=CC(=CC=C1)S(=O)(=O)N2CCOCC2)/C3=C(C=CC(=C3)Cl)O
Outline: as §1

[3] = compound: C1=CC(=CC=C1C2=NC3=C(N2)C=C(C=C3)C(=O)N)OC4=CC=C(C=C4)Cl
Outline: as §1

[4] = compound: C1=CC2=C(C=CC(=C2)/C=C\3/C(=O)NC(=NCC4=CC=CS4)S3)N=C1
Outline: as §1

[5] = compound: C1=CC2=NC=CN=C2C=C1/C=C/3\C(=O)NC(=O)S3
Outline: as §1

[6] = compound: C1=CC=C(C=C1)C2=NC(=C(N2)C3=CC=NC=C3)C4=CC(=C(C=C4)Cl)O
Outline: as §1

[7] = compound: C1=CC=C2C(=C1)C3=NNC4=CC=CC(=C43)C2=O
Outline: as §1

[8] = compound: C1CCN(C1)C(=O)NC2=CC=CC(=C2)NC3=NC=C(C(=N3)NCCC4=CN=CN4)Br
Outline: as §1

[9] = compound: C1CN(CCC1(CC2=CC=C(C=C2)Cl)N)C3=NC=NC4=C3C=CN4
Outline: as §1

[10] = compound: C1COCCN1CCN2C3=CC=CC=C3N=C2NC(=O)C4=CC(=CC=C4)[N+](=O)[O-] [IRAK-1-4 Inhibitor I]
Outline: as §1

Measured: log2 fold change

CD63 (UniProt P08962)
inactive: [1] -0.042 | [2] 0.026 | [3] -0.031 | [4] 0.047 | [5] 0.057 | [6] -0.114 | [7] -0.038 | [8] 0.018 | [9] -0.016 | [10] 0.066

CASTOR2 (UniProt A6NHX0)
inactive: [1] -0.015 | [2] -0.258 | [3] -0.037 | [4] -0.023 | [5] 0.029 | [6] 0.033 | [7] 0.045 | [8] -0.064 | [9] 0.011 | [10] 0.022

CCNB2 (UniProt O95067)
inactive: [1] 0.037 | [2] 0.038 | [3] 0.075 | [4] -0.061 | [5] -0.008 | [6] 0.008 | [7] -0.125 | [8] -0.02 | [9] 0.027 | [10] 0.033

CCDC43 (UniProt Q96MW1)
inactive: [1] -0.053 | [2] 0.021 | [3] 0.028 | [4] -0.065 | [5] -0.035 | [6] -0.007 | [7] 0.006 | [8] 0.012 | [9] -0.012 | [10] -0.018

CASK (UniProt O14936)
inactive: [1] -0.151 | [2] -0.05 | [3] 0.025 | [4] 0.034 | [5] 0.014 | [6] 0.027 | [7] -0.007 | [8] 0.068 | [9] 0.029 | [10] -0.059

CCDC47 (UniProt Q96A33)
inactive: [1] 0.02 | [2] 0.003 | [3] -0.071 | [4] 0.009 | [5] 0.022 | [6] -0.03 | [7] -0.093 | [8] -0.007 | [9] 0.024 | [10] 0.003

CCNDBP1 (UniProt O95273)
inactive: [1] 0 | [2] 0.058 | [3] -0.05 | [4] -0.133 | [5] -0.011 | [6] 0.003 | [7] 0.113 | [8] -0.007 | [9] 0.055 | [10] -0.01

CASP9 (UniProt P55211)
inactive: [1] -0.007 | [2] 0.008 | [3] 0.008 | [4] 0.03 | [5] 0.069 | [6] -0.002 | [7] -0.008 | [8] 0.014 | [9] 0.006 | [10] 0.034

CCP110 (UniProt O43303)
inactive: [1] 0.081 | [3] 0.046 | [4] -0.022 | [5] 0.03 | [6] -0.088 | [7] -0.047 | [8] -0.051 | [9] 0.051 | [10] 0.075
active: [2] -0.436

CASKIN2 (UniProt Q8WXE0)
inactive: [1] 0.013 | [2] 0.027 | [3] 0.013 | [4] -0.019 | [5] -0.061 | [6] -0.001 | [7] 0.062 | [8] 0.034 | [9] 0.024 | [10] 0.024

CD2AP (UniProt Q9Y5K6)
inactive: [1] -0.011 | [2] -0.028 | [3] 0.03 | [4] -0.017 | [5] -0.019 | [6] 0.014 | [7] 0.01 | [8] 0.023 | [9] -0.002 | [10] 0.01

CBFB isoform 2 (UniProt Q13951)
inactive: [1] -0.045 | [2] 0.031 | [3] -0.033 | [4] 0 | [5] 0.023 | [6] -0.007 | [7] -0.022 | [8] 0.03 | [9] 0 | [10] 0.002

CCPG1 isoform 5 (UniProt Q9ULG6)
inactive: [1] -0.014 | [2] 0.08 | [3] 0.082 | [4] 0.017 | [5] 0.024 | [6] 0.067 | [7] -0.119 | [8] 0.019 | [9] 0.053 | [10] -0.03

CBR1 (UniProt P16152)
inactive: [1] 0.011 | [2] 0.025 | [3] -0.001 | [4] 0.003 | [5] 0.016 | [6] 0.047 | [7] -0.001 | [8] -0.008 | [9] -0.006 | [10] -0.033

CCNYL1 (UniProt Q8N7R7)
inactive: [1] 0.026 | [2] -0.101 | [3] 0.084 | [4] 0.06 | [5] -0.04 | [6] -0.042 | [7] -0.002 | [8] -0.051 | [9] 0.049 | [10] 0.026

CC2D1B isoform 2 (UniProt Q5T0F9)
inactive: [1] -0.013 | [2] 0.021 | [3] 0.019 | [4] 0.02 | [5] -0.032 | [6] 0.009 | [7] -0.024 | [8] -0.023 | [9] 0.023 | [10] -0.012

CCDC6 (UniProt Q16204)
inactive: [1] -0.008 | [2] -0.001 | [3] 0.045 | [4] -0.007 | [5] -0.03 | [6] -0.007 | [7] 0.018 | [8] -0.009 | [9] -0.026 | [10] -0.017

CASC3 (UniProt O15234)
inactive: [1] -0.005 | [2] -0.115 | [3] 0.012 | [4] -0.047 | [5] -0.053 | [6] -0.045 | [7] 0.039 | [8] 0.036 | [9] -0.061 | [10] 0.005

CCT5 (UniProt P48643)
inactive: [1] -0.03 | [2] 0.015 | [3] 0.006 | [4] -0.013 | [5] -0.009 | [6] -0.006 | [7] 0.025 | [8] 0.015 | [9] -0.016 | [10] -0.017

CCDC28A (UniProt Q8IWP9)
inactive: [1] -0.046 | [2] -0.175 | [3] 0.02 | [4] 0.069 | [5] -0.067 | [6] 0.032 | [7] -0.036 | [8] 0.011 | [9] -0.014 | [10] 0.012

CCDC50 isoform 2 (UniProt Q8IVM0)
inactive: [1] -0.085 | [2] 0.028 | [3] -0.103 | [4] -0.024 | [5] 0.02 | [6] 0.014 | [7] 0.072 | [8] 0.041 | [9] -0.013 | [10] -0.023

CCDC88C (UniProt Q9P219)
inactive: [1] -0.107 | [2] -0.035 | [3] 0.112 | [4] 0.006 | [5] 0.087 | [6] 0.012 | [7] -0.027 | [8] -0.014 | [9] -0.026 | [10] -0.101

Random excerpt: two entries already listed.
CCDC50 isoform 2 (UniProt Q8IVM0)
inactive: [1] -0.085 | [2] 0.028 | [3] -0.103 | [4] -0.024 | [5] 0.02 | [6] 0.014 | [7] 0.072 | [8] 0.041 | [9] -0.013 | [10] -0.023

CCDC28A (UniProt Q8IWP9)
inactive: [1] -0.046 | [2] -0.175 | [3] 0.02 | [4] 0.069 | [5] -0.067 | [6] 0.032 | [7] -0.036 | [8] 0.011 | [9] -0.014 | [10] 0.012

Carrying on:

CBS (UniProt P35520)
inactive: [1] -0.023 | [2] 0.012 | [3] -0.031 | [4] -0.017 | [5] -0.005 | [6] -0.004 | [7] 0.027 | [8] 0.012 | [9] -0.02 | [10] -0.015

CCT4 (UniProt P50991)
inactive: [1] -0.015 | [2] -0.038 | [3] -0.002 | [4] -0.01 | [5] -0.007 | [6] -0.008 | [7] 0.05 | [8] 0.013 | [9] -0.038 | [10] -0.015

CARM1 (UniProt Q86X55)
inactive: [1] 0.002 | [2] 0.03 | [3] 0.009 | [4] -0.019 | [5] 0.008 | [6] 0.001 | [7] -0.049 | [8] -0.019 | [9] 0.02 | [10] 0

CD3EAP isoform 2 (UniProt O15446)
inactive: [1] 0.001 | [2] -0.038 | [3] 0.068 | [4] -0.001 | [5] 0.007 | [6] 0.001 | [7] -0.017 | [8] 0.005 | [9] -0.005 | [10] 0.036

CCT8 (UniProt P50990)
inactive: [1] -0.001 | [2] 0.009 | [3] -0.002 | [4] -0.015 | [5] -0.024 | [6] 0.001 | [7] 0.015 | [8] 0.013 | [9] -0.002 | [10] 0.007
